Binding data for 5 molecules are collected here from article PMC12720080.

Chains of the proteins cited; added tags and fusions are not shown.
UniProt O00308: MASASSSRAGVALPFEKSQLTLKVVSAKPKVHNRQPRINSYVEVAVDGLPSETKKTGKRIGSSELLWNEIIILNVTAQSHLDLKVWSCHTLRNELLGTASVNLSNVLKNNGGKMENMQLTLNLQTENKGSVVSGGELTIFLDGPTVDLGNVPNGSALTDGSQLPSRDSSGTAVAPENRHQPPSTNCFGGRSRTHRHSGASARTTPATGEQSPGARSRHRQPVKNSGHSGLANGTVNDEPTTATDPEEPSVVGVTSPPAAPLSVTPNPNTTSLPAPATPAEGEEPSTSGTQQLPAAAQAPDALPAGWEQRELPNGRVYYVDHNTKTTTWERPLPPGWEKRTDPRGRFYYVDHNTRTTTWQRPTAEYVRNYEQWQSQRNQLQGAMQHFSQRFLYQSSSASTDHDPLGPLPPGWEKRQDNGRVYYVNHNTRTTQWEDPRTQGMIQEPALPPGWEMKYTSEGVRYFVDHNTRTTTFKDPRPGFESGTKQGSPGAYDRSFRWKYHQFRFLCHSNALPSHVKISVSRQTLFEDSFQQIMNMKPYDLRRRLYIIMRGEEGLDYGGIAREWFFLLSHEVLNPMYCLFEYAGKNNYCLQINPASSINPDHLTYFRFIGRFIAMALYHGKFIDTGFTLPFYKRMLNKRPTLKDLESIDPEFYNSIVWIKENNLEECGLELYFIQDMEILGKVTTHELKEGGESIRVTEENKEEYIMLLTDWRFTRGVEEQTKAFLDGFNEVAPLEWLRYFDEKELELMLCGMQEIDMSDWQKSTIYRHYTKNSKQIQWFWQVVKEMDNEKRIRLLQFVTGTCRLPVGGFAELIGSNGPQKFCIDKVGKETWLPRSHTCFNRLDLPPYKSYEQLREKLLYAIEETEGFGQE

No constants are given. Whether binding was seen depends on the method and setting. In cells and extracts the contact can be indirect. Some entries that bind do so weakly or less than the wild type. Where a sequence is shown, tags or fusion partners need not be part of it.

The labels stand for the following.
B1: FLAG-NDFIP2 (wild type) (protein, UniProt Q9NV92 1-336)
chain: MARRRSQRVCASGPSMLNSARGAPELLRGTATNAEVSAAAAGATGSEELPPGDRGCRNGGGRGPAATTSSTGVAVGAEHGEDSLSRKPDPEPGRMDHHQPGTGRYQVLLNEEDNSESSAIEQPPTSNPAPQIVQAASSAPALETDSSPPPYSSITVEVPTTSDTEVYGEFYPVPPPYSVATSLPTYDEAEKAKAAAMAAAAAETSQRIQEEECPPRDDFSDADQLRVGNDGIFMLAFFMAFIFNWLGFCLSFCITNTIAGRYGAICGFGLSLIKWILIVRFSDYFTGYFNGQYWLWWIFLVLGLLLFFRGFVNYLKVRNMSESMAAAHRTRYFFLL
B2: FLAG-NDFIP2 Y186A (protein, UniProt Q9NV92 1-336)
chain: MARRRSQRVCASGPSMLNSARGAPELLRGTATNAEVSAAAAGATGSEELPPGDRGCRNGGGRGPAATTSSTGVAVGAEHGEDSLSRKPDPEPGRMDHHQPGTGRYQVLLNEEDNSESSAIEQPPTSNPAPQIVQAASSAPALETDSSPPPYSSITVEVPTTSDTEVYGEFYPVPPPYSVATSLPTADEAEKAKAAAMAAAAAETSQRIQEEECPPRDDFSDADQLRVGNDGIFMLAFFMAFIFNWLGFCLSFCITNTIAGRYGAICGFGLSLIKWILIVRFSDYFTGYFNGQYWLWWIFLVLGLLLFFRGFVNYLKVRNMSESMAAAHRTRYFFLL
B3: FLAG-NDFIP2 Y151A;Y177A (protein, UniProt Q9NV92 1-336)
chain: MARRRSQRVCASGPSMLNSARGAPELLRGTATNAEVSAAAAGATGSEELPPGDRGCRNGGGRGPAATTSSTGVAVGAEHGEDSLSRKPDPEPGRMDHHQPGTGRYQVLLNEEDNSESSAIEQPPTSNPAPQIVQAASSAPALETDSSPPPASSITVEVPTTSDTEVYGEFYPVPPPASVATSLPTYDEAEKAKAAAMAAAAAETSQRIQEEECPPRDDFSDADQLRVGNDGIFMLAFFMAFIFNWLGFCLSFCITNTIAGRYGAICGFGLSLIKWILIVRFSDYFTGYFNGQYWLWWIFLVLGLLLFFRGFVNYLKVRNMSESMAAAHRTRYFFLL
B4: FLAG-NDFIP2 Y177A (protein, UniProt Q9NV92 1-336)
chain: MARRRSQRVCASGPSMLNSARGAPELLRGTATNAEVSAAAAGATGSEELPPGDRGCRNGGGRGPAATTSSTGVAVGAEHGEDSLSRKPDPEPGRMDHHQPGTGRYQVLLNEEDNSESSAIEQPPTSNPAPQIVQAASSAPALETDSSPPPYSSITVEVPTTSDTEVYGEFYPVPPPASVATSLPTYDEAEKAKAAAMAAAAAETSQRIQEEECPPRDDFSDADQLRVGNDGIFMLAFFMAFIFNWLGFCLSFCITNTIAGRYGAICGFGLSLIKWILIVRFSDYFTGYFNGQYWLWWIFLVLGLLLFFRGFVNYLKVRNMSESMAAAHRTRYFFLL
B5: FLAG-NDFIP2 Y151A (protein, UniProt Q9NV92 1-336)
chain: MARRRSQRVCASGPSMLNSARGAPELLRGTATNAEVSAAAAGATGSEELPPGDRGCRNGGGRGPAATTSSTGVAVGAEHGEDSLSRKPDPEPGRMDHHQPGTGRYQVLLNEEDNSESSAIEQPPTSNPAPQIVQAASSAPALETDSSPPPASSITVEVPTTSDTEVYGEFYPVPPPYSVATSLPTYDEAEKAKAAAMAAAAAETSQRIQEEECPPRDDFSDADQLRVGNDGIFMLAFFMAFIFNWLGFCLSFCITNTIAGRYGAICGFGLSLIKWILIVRFSDYFTGYFNGQYWLWWIFLVLGLLLFFRGFVNYLKVRNMSESMAAAHRTRYFFLL

For this test, the target named is HA-WWP2 (full length, wild type) (UniProt O00308). Description: co-IP; HEK293T (WT or TMEM127-/-) co-transfected; post-nuclear supernatant on anti-HA agarose 2 h at 4 °C (HA-WWP2 as bait); lysis 0.5% Triton-X-100, 150 mM NaCl, 50 mM Tris-Cl pH 7.4, 5 mM EDTA, 5% glycerol; immunoblot. On the technique in general: Immunoblotting shows a protein as a band on a membrane.
Take B1: the binding entry is on record as “binds”.

In the case of B2, the binding entry is listed as “binds”.

Take B3: the binding result is on record as “binds”.

B4: the binding result is “binds”.

In the case of B5, the binding result is listed as “binds”.
